The record followed here is article PMC4383706 (Cancer prevention research (Philadelphia, Pa.), 2015).

The conditions of data set [1]: NPX 40 mg/Kg BW gavage, serum.
Data set [2] is described as follows: in vivo. The conditions noted are these: female, Fischer-344, rat, serum, po, 40 mg/kg.

Where “and” joins values, the source holds several entries; their conditions need not be identical. Equal entries are not always repeated. Where two headings read alike, the source gives them in different places.

Regarding `COc1ccc2cc([C@H](C)C(=O)O)ccc2c1` [NPX, naproxen], the AUC in data set [1] (14 Day (14 consecutive days)) is 847,418 hrxng/ml. Further, in data set [1] (24 hour (1 day) time point), the AUC is 686,277 hrxng/ml and the Vd is 0.255 L/kg. Moreover, in data set [2], the Cmax – broadly, the highest concentration seen after dosing – was ~300 µM and 71300 ng/mL; the highest level (Cmax at 14 days) was 66.6 µg/mL; the Tmax (as a rule, the time from dosing to the highest level) stood at 2 h; the time to peak (Tmax) at 14 days was 2 h.
